# Several values for one entry are separate records, joined by “and”; a condition that tells them apart may be missing. Equal values may be shown once. The whole screen tested about 390,000 compounds, of which about 4,000 (1%) were called active. Inconclusive means that the source gave no clear call. Such entries were picked first, then a sample of the others. Calls come from the whole dose curve; as a rule, active = well fitted inhibition curve with a large enough effect; inconclusive = small, poorly fitted or top-dose-only effect, or another doubt; inactive = no such curve, though single readings can be large or run the other way. Where the call is inconclusive, the potency comes from a doubtful curve fit.
# Protein sequences, listed by entry. Tags and fused reporters are not part of them. Lines headed by an entry give the natural chain unless they say otherwise; changes in a name come on top.
# UniProt Q9UNA4: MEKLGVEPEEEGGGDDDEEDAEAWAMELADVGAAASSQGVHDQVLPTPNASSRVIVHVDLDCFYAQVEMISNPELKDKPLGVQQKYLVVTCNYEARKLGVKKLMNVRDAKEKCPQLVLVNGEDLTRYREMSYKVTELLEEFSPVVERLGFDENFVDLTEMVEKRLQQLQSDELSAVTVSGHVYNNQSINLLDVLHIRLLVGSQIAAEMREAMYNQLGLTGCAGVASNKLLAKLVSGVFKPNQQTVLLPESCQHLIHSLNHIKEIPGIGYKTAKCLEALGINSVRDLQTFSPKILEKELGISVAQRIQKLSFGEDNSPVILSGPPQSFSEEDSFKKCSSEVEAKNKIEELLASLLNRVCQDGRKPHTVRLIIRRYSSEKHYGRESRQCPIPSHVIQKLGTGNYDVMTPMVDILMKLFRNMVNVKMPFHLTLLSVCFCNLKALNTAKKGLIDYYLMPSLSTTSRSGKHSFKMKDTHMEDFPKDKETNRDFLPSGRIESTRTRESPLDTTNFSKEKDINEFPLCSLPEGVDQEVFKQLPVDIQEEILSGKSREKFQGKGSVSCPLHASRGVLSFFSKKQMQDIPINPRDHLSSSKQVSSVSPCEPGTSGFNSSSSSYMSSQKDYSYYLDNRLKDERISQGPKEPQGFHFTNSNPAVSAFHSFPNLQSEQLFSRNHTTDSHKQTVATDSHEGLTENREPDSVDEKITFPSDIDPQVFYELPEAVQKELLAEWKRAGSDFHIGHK
# Target: DNA polymerase iota (Homo sapiens) (UniProt Q9UNA4)
# Assay: qHTS for Inhibitors of Polymerase Iota
# Conditions: Pol iota fluorescent replication assay, 10 min; series mostly up to 115 µM
# Method in brief: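 Pol iota at 10 nM preincubated 15 min with compounds at room temperature; reaction started with fluorescent substrate, 50 nM final. Fluorescence read kinetically at 0 and 10 min; buffer-only wells as negative control.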
# Potency is the fitted concentration of half-maximal effect.
row,SMILES,Potency
1,C=CCN1C(=O)NC(=O)C(Cc2ccc(OC)c(OC)c2)C1=O (stereo unspecified),"inconclusive: 10 µM [inhibitor, full curve, poor fit]"
2,Nc1nc(NCc2ccc(F)cc2)c2[nH]cnc2n1,inactive
3,CCOc1ccc(N2C(=O)NC(=O)/C(=C\c3ccc(N4CCOCC4)cc3C)C2=O)cc1,"inconclusive: 25.1 µM [inhibitor, single point]"
4,O=[N+]([O-])c1ccc(S(=O)(=O)NN=C2CCCCC2)cc1,"inconclusive: 89.1 µM [inhibitor, partial curve, poor fit]"
5,Cc1ccc(-c2cc(C(F)F)n3ncc(C(=O)N4CCC5(CC4)OCCO5)c3n2)cc1,"inconclusive: 79.4 µM [inhibitor, single point]"
6,Cc1ccsc1C(=O)C1CCCN(Cc2cnn(C)c2)C1 (stereo unspecified),"inconclusive: 89.1 µM [inhibitor, single point]"
7,COCc1[nH]nc2c1C(c1ccccc1F)C(C#N)=C(N)O2 (stereo unspecified),"inconclusive: 7.94 µM [inhibitor, partial curve, poor fit]"
8,O=C1NC(=O)N(Cc2ccco2)C(=O)/C1=C/c1ccc(-c2cccc([N+](=O)[O-])c2)o1,active: 7.94 µM
9,NCCc1ccc(S(=O)(=O)F)cc1,"inconclusive: 22.4 nM [inhibitor, full curve, poor fit] and inconclusive: 100 µM [inhibitor, partial curve, poor fit]"
10,COc1ccccc1C=C1C(=O)NC(=S)NC1=O,inactive
11,COc1ccc(CN2C(=O)NC(=O)/C(=C/c3ccc([N+](=O)[O-])s3)C2=O)cc1,"inconclusive: 8.91 µM [inhibitor, full curve, poor fit]"
12,COc1cc(N2CCOCC2)ccc1/C=C1\C(=O)NC(=O)N(Cc2cccs2)C1=O,"inconclusive: 25.1 µM [inhibitor, single point]"
13,CC1Oc2cc3c(-c4c(O)cc(O)c5c(O)c6c(cc45)OC(C)C(C)C6=O)c(O)cc(O)c3c(O)c2C(=O)C1C (stereo unspecified),active: 3.98 µM
14,CCS(=O)(=O)N1CCN(C2CCC(C)CC2)CC1 (stereo unspecified),"inconclusive: 89.1 µM [inhibitor, partial curve, poor fit]"
15,CCn1ccnc1CN1CCCC(C(=O)c2ccc(SC)cc2)C1 (stereo unspecified),"inconclusive: 89.1 µM [inhibitor, single point]"
16,COc1ccc(CCn2c(NN=C3CCCCC3)nc3c2c(=O)[nH]c(=O)n3C)cc1,active: 17.8 µM
17,CCOC(=O)c1cc(CC)sc1/N=C/C1C(=O)NC(=S)NC1=O,"inconclusive: 28.2 µM [inhibitor, single point]"
18,Nc1c(C(=O)NCCc2ccccc2)c2nc3ccccc3nc2n1CCN1CCOCC1,"inconclusive: 44.7 µM [inhibitor, partial curve]"
19,O=c1[nH]c(=O)n(Cc2ccco2)c(O)c1C=NCCN1CCOCC1,"inconclusive: 11.2 µM [inhibitor, partial curve, poor fit]"
20,C=CCc1cc(C=C2C(=O)NC(=O)NC2=O)cc(OC)c1OCc1ccc(C(=O)O)cc1,"inconclusive: 14.1 µM [inhibitor, full curve, poor fit]"
21,Cn1c(O)c(C(=Nc2ccc(F)cc2)c2ccccc2)c(=O)n(C)c1=O,"inconclusive: 79.4 µM [inhibitor, partial curve, poor fit]"

row,SMILES,Potency
1,CCOc1ccccc1N1C(=O)NC(=O)/C(=C/c2ccc3c4c(cccc24)CC3)C1=O,inactive
2,Cc1cccn2c(=O)c(/C=C(\C#N)c3nc4ccccc4s3)c(Oc3ccc(F)cc3)nc12,"inconclusive: 11.2 µM [inhibitor, full curve]"
3,COc1ccc(C(=O)Nc2sc3c(c2C(=O)O)CC(C)(C)OC3)cc1,"inconclusive: 89.1 µM [inhibitor, single point]"
4,CCOC(=O)N1CC(C)N(/[N+]([O-])=N/Oc2ccc([N+](=O)[O-])cc2[N+](=O)[O-])CC1C (stereo unspecified),"inconclusive: 50.1 µM [inhibitor, partial curve, poor fit]"
5,O=C(Nc1ccc2c(c1)OCCO2)c1cccn(Cc2cccc(F)c2)c1=O,"inconclusive: 89.1 µM [inhibitor, single point]"
6,CCCCCn1c(N)c(C(=O)NCc2cccs2)c2nc3ccccc3nc21,active: 22.4 µM
7,Cc1ccc(N2C(=O)/C(=C/c3ccc(CN(CCC#N)S(C)(=O)=O)o3)C(=O)NC2=S)cc1,active: 3.16 µM
8,CCOc1ccc2nc(NC(=O)c3cccn(Cc4ccccc4)c3=O)sc2c1,inactive
9,CCCCn1c(N)c(C(=O)OCCOC)c2nc3ccccc3nc21,inactive
10,Cc1cc(-c2nc3ncccc3o2)ccc1NC(=O)c1ccccc1Br,"inconclusive: 89.1 µM [inhibitor, single point]"
11,O=C(O)c1ccccc1SSc1ccccc1C(=O)O,"inconclusive: 22.4 µM [inhibitor, full curve]"
12,O=C(Oc1ccc(N2C(=O)C3C4CCC(C4)C3C2=O)cc1)c1ccco1 (stereo unspecified),inactive
13,COc1ccccc1-n1c(O)c(C=Nc2c(C)n(C)n(-c3ccccc3)c2=O)c(=O)[nH]c1=O,inactive
14,O=C(c1cccc2ccccc12)C1CCCN(C2CCC2)C1 (stereo unspecified),"inconclusive: 50.1 µM [inhibitor, partial curve, poor fit]"
15,COc1ccccc1-n1c(-c2cccs2)nc2ccccc2c1=O,"inconclusive: 3.16 µM [inhibitor, full curve]"
16,Cc1ccc(CN2CCN(Cc3ccccc3F)CC2)cc1,"inconclusive: 39.8 µM [inhibitor, single point]"
17,CCNC(=O)[C@H]1O[C@@H](n2cnc3c(N)ncnc32)[C@H](O)[C@H]1O,inactive
18,COc1cc(C(=O)OC2C[C@H]3CC[C@@H](C2)N3)ccc1O (stereo partly specified),"inconclusive: 11.2 µM [inhibitor, partial curve, poor fit]"
19,CCn1c(=S)sc2c(=O)[nH]c(SCC(=O)Nc3cc(OC)ccc3OC)nc21,"inconclusive: 22.4 µM [inhibitor, full curve]"
20,C/C(CC(c1ccccc1)c1c(O)c2ccccc2oc1=O)=N\Nc1ccc([N+](=O)[O-])cc1[N+](=O)[O-] (stereo unspecified),"inconclusive: 22.4 µM [inhibitor, partial curve, poor fit]"

# A second format for some results above.
row | SMILES | Potency
3 | COc1ccc(C(=O)Nc2sc3c(c2C(=O)O)CC(C)(C)OC3)cc1 | inconclusive: 89.1 µM [inhibitor, single point]
11 | O=C(O)c1ccccc1SSc1ccccc1C(=O)O | inconclusive: 22.4 µM [inhibitor, full curve]

# From PubChem BioAssay AID588590 (National Center for Advancing Translational Sciences (NCATS), 2011)
